In patent US20160257751A1 (SORRENTO THERAPEUTICS, published 2016):
Results are given in words; binding and its absence hold for the method and conditions named. Some entries that bind do so weakly or less than the wild type.

Amino acid sequences for entries named in this document (tags omitted). Residues count along the entry.
UniProt Q08722, residues 19-139: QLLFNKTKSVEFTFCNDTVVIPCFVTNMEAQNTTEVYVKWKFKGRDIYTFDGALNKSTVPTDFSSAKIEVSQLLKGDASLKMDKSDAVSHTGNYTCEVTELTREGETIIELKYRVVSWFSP

Experiments:
human CD47 [1] = molecular target: T1, human CD47 (human, UniProt Q08722 19-139, limits assumed, biotinylated in the ELISAs (site not stated)); assay: affinity screen of CDR variants and combinatorial library, relative to C47B10-1
T1 construct: also called biotinylated CD47; CD47 receptor

human CD47 [2] = molecular target: T1, human CD47; assay: ELISA, antibody captured on goat anti-lambda, biotinylated CD47, neutravidin-AP detection
human CD47 [3] = molecular target: T1, human CD47; assay: ELISA: antibody at 1 ug/ml captured on goat anti-lambda antibody; serially diluted biotinylated CD47, then neutravidin-AP; PNPP absorbance

Measured: binding

B1: C47B10-1F6S (antibody, V domains shown)
VH: QVQLVQSGAEVKKPGASVKVSCKASGYTFTSYYMHWVRQAPGQGLEWMGIINPSGGSTSYAQKFQGRVTMTRDTSTSTVYMELSSLRSEDTAVYYCARSTLWFSEFDYWGQGTLVTVSS
VL: QSALTQPASVSGSPGQSISISCTGTSSDVGGHNYVSWYQQHPGKAPKLMIYDVRNRPSGVSNRFSGSKSGSTASLTISGLQTEDEADYYCLSYTGSRTYVFGSGTKLTVL
binds: all assays above
